# Listed are the inconclusive results; actives and inactives stand elsewhere.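 How the source made its calls: active means fitted curve reaching a 40% PDK4 expression rise at or below the top valid tested dose; inconclusive means no clear call, values can overlap the other calls; inactive means the rest, including shifts the wrong way.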
# Test: change in PGC-1a target gene PDK4 expression, dose response, C2C12 myotubes, RT-qPCR, cherry-pick (AID 743468)
# Conditions: PGC-1a adenovirus, PDK4 mRNA qPCR; at 19.5 µM (top of the series)
structure (smiles),measurement,value
COc1ccccc1C#Cc1ccc2c(c1)O[C@@H](CN(C)Cc1cccnc1)[C@H](C)CN([C@H](C)CO)S2(=O)=O,PDK4 expression increase,inconclusive: -10.2%

# — PubChem BioAssay AID743468 (Broad Institute, 2014)
